Results deposited as PubChem BioAssay AID504793 (Drosophila RNAi Screening Center, 2011).

Purpose: 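Genes required for cells to halt at G2/M after double-strand DNA breaks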 (primary screen)
Cells: Drosophila S2R+ cells
Reagent: long dsRNA against Drosophila genes, about 0.25 µg dsRNA per well
Time to read-out: 4 days of dsRNA, then 4 hours of drug before read-out
Conditions: doxorubicin 0.5 µM for 4 hours to cause double-strand breaks, in cells also given a low, harmless dose of dsRNA against nbs to sensitise the assay
Measurement: 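Per-well count of mitotic cells stained for phospho-histone H3 after doxorubicin exposure, used as mitotic index; counts are raw and not normalised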
Direction: mitotic cells: higher = more cells in mitosis, weaker G2 arrest
Rule for the call: 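a call needs confirmation in secondary tests, with other dsRNAs and a check of mitotic timing without damage, not just a high primary count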
Meaning of the calls: active = confirmed in follow-up tests; inactive = not confirmed
The screen tested about 23,000 reagents; shown is a random part of those with a known target gene and a result. In the full data, 62 (0.27%) got an active call. 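Calls come from follow-up tests whose scores are not deposited, so confirmed genes may have low counts here; counts are not normalised per plate.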 The raw values are shown without normalisation. Names joined by + are all predicted targets of the reagent. No sequences are given here.

no.	predicted target	dsRNA	mitotic cells, replicate 1	mitotic cells, replicate 2	Call
1	Pglym87 (Phosphoglyceromutase 87)	DRSC15252	4		inactive
2	Pglym87 (Phosphoglyceromutase 87)	DRSC26066	9		inactive
3	CG2157	DRSC19836	8		inactive
4	Psa (Puromycin sensitive aminopeptidase)	DRSC08152	7		inactive
5	BBS1 (Bardet-Biedl syndrome 1)	DRSC10196	8		inactive
6	CG12012	DRSC08220	3		inactive
7	ssp6 (short spindle 6)	DRSC08791	8		inactive
8	ssp6 (short spindle 6)	DRSC10677	1		inactive
9	ssp6 (short spindle 6)	DRSC27709	5		inactive
10	CG13545	DRSC04187	6		inactive
11	CG13545	DRSC25484	2		inactive
12	CG31010	DRSC14006	7		inactive
13	CG30377	DRSC06477	8		inactive
14	CG30377	DRSC25708	9		inactive
15	Lamtor3 (Late endosomal/lysosomal adaptor, MAPK and MTOR activator 3)	DRSC02815	8		inactive
16	CG2104	DRSC12304	4		inactive
17	Den1 (Deneddylase 1)	DRSC07195	5		inactive
18	CG34445	DRSC22404	16		inactive
19	Tango10 (Transport and Golgi organization 10)	DRSC19807	6		inactive
20	Tango10 (Transport and Golgi organization 10)	DRSC26535	13		inactive
21	CPT2 (Carnitine palmitoyltransferase 2)	DRSC08553	7		inactive
22	CG11249	DRSC11645	5		inactive
23	Cyp4ac2 (Cytochrome P450 4ac2)	DRSC03303	4		inactive
24	Nadk1b (NAD kinase 1b)	DRSC06964	3		inactive
25	Nadk1b (NAD kinase 1b)	DRSC06965	3		inactive
26	Nadk1b (NAD kinase 1b)	DRSC25741	8		inactive
27	CG13606	DRSC14609	21		inactive
28	ver (verrocchio)	DRSC10125	4		inactive
29	ver (verrocchio)	DRSC28113	7		inactive
30	CG34375	DRSC14684	5		inactive
31	CG34375	DRSC14685	6		inactive
32	CG34375	DRSC24412	5		inactive
33	CG34195	DRSC06909	3		inactive
34	zyd (zydeco)	DRSC20716	5		inactive
35	wrd (well-rounded)	DRSC16344	5		inactive
36	wrd (well-rounded)	DRSC23189	11		inactive
37	wrd (well-rounded)	DRSC25929	6		inactive
38	snu (snustorr)	DRSC16589	6		inactive
39	Top1 (Topoisomerase 1)	DRSC20295	7		inactive
40	stops (slow termination of phototransduction)	DRSC15095	4		inactive
41	stops (slow termination of phototransduction)	DRSC15096	10		inactive
42	stops (slow termination of phototransduction)	DRSC15097	10		inactive
43	CG32572	DRSC19525	13		inactive
44	CG32572	DRSC19526	6		inactive
45	CG32572	DRSC30085			inactive
46	RpL28 + snoRNA:Or-CD12	DRSC08293	3		inactive
47	CG34178 + CG34177	DRSC00351	3		inactive
48	CG12730	DRSC17885	15		inactive
49	bc10	DRSC11326	7		inactive
50	GATAd	DRSC02803	7		inactive
51	ssx	DRSC18492	3		inactive
52	ssx	DRSC23454	5		inactive
53	Pif1 (Pif1 DNA helicase)	DRSC00582	4		inactive
54	CG8152	DRSC07083	9		inactive
55	COX7C (Cytochrome c oxidase subunit 7C)	DRSC06831	15		inactive
56	CG9029	DRSC03129	6		inactive
57	SdhA (Succinate dehydrogenase, subunit A (flavoprotein))	DRSC07547	9		inactive
58	CR31824 (pseudo)	DRSC01517	4		inactive
59	CR31824 (pseudo)	DRSC29841	10		inactive
60	TTLL6B (Tubulin tyrosine ligase-like 6B)	DRSC15932	9		inactive
61	TTLL6B (Tubulin tyrosine ligase-like 6B)	DRSC26754	3		inactive
62	Cyp6w1 (Cytochrome P450 6w1)	DRSC04909	6		inactive
63	CG3065	DRSC24998	4		inactive
64	PolA1 (DNA polymerase alpha subunit 1)	DRSC16640	2		inactive
65	PolA1 (DNA polymerase alpha subunit 1)	DRSC27879	5		inactive
66	CG33116	DRSC02045	5		inactive
67	alphaSnap (alpha Soluble NSF attachment protein)	DRSC11285	3		inactive
68	alphaSnap (alpha Soluble NSF attachment protein)	DRSC29788	7		inactive
69	Acsx1R + Acsx1L	DRSC24222	8		inactive
70	bsf (bicoid stability factor)	DRSC02035	4		inactive
71	CG8547	DRSC07211	6		inactive
72	CG8547	DRSC28818	6		inactive
73	CG18745	DRSC15382	7		inactive
74	CG18745	DRSC30088	5		inactive
75	rho-6 (rhomboid-6)	DRSC02588	6		inactive
76	rho-6 (rhomboid-6)	DRSC29070	2		inactive
77	Prosalpha4 (Proteasome alpha4 subunit)	DRSC20271	19		inactive
78	Prosalpha4 (Proteasome alpha4 subunit)	DRSC25287	5		inactive
79	CG30447	DRSC05820	3		inactive
80	gfzf (GST-containing FLYWCH zinc-finger protein)	DRSC12506	9		active
81	gfzf (GST-containing FLYWCH zinc-finger protein)	DRSC21874	7		active
82	wtrw (water witch)	DRSC14241	4		inactive
83	wtrw (water witch)	DRSC15278	5	13	inactive
84	wtrw (water witch)	DRSC29977	19		inactive
85	CG18281	DRSC11742	2		inactive
86	CG1628	DRSC18109	9		inactive
87	Est-Q (Esterase Q)	DRSC11835	5		inactive
88	CG17167	DRSC20902	3		inactive
89	CG17167	DRSC20903	7		inactive
90	CG7606	DRSC16268	6		inactive
91	Regnase-1 (Regnase 1)	DRSC14278	13		inactive
92	trh (trachealess)	DRSC08355	5		inactive
93	trh (trachealess)	DRSC08739	11		inactive
94	trh (trachealess)	DRSC30093	1		inactive
95	Bacc (Bacchus)	DRSC27262	4		inactive
96	CG43672	DRSC19452	11		inactive
97	CG43672	DRSC20108	6		inactive
98	Best1 (Bestrophin 1)	DRSC16909	8		inactive
99	Best1 (Bestrophin 1)	DRSC26475	2		inactive
100	Ork1 (Open rectifier K[+] channel 1)	DRSC20266	6		inactive
101	pira (pirate)	DRSC19494	11		inactive
102	CG13084	DRSC02188	3		inactive
103	lncRNA:CR32553 (long non-coding RNA:CR32553)	DRSC19229	5		inactive
104	CG31086 + CG31323	DRSC14902	5		inactive
105	CG31086 + CG31323	DRSC24466	10		inactive
106	CG10947	DRSC02111	9		inactive
107	CG10947	DRSC27404	10		inactive
108	CG32462	DRSC11851	3		inactive
109	CG32462	DRSC29458	5		inactive
110	Or67a (Odorant receptor 67a)	DRSC11240	3		inactive

Sorted by “mitotic cells, replicate 1” (high to low): 18 of the entries above
predicted target	dsRNA	mitotic cells, replicate 1	mitotic cells, replicate 2	Call
CR31824 (pseudo)	DRSC29841	10		inactive
TTLL6B (Tubulin tyrosine ligase-like 6B)	DRSC15932	9		inactive
Acsx1R + Acsx1L	DRSC24222	8		inactive
alphaSnap (alpha Soluble NSF attachment protein)	DRSC29788	7		inactive
CG18745	DRSC15382	7		inactive
Cyp6w1 (Cytochrome P450 6w1)	DRSC04909	6		inactive
CG8547	DRSC07211	6		inactive
CG8547	DRSC28818	6		inactive
rho-6 (rhomboid-6)	DRSC02588	6		inactive
PolA1 (DNA polymerase alpha subunit 1)	DRSC27879	5		inactive
CG33116	DRSC02045	5		inactive
CG18745	DRSC30088	5		inactive
CR31824 (pseudo)	DRSC01517	4		inactive
CG3065	DRSC24998	4		inactive
bsf (bicoid stability factor)	DRSC02035	4		inactive
TTLL6B (Tubulin tyrosine ligase-like 6B)	DRSC26754	3		inactive
alphaSnap (alpha Soluble NSF attachment protein)	DRSC11285	3		inactive
PolA1 (DNA polymerase alpha subunit 1)	DRSC16640	2		inactive
